The exact form of at least one protein or probe is not confirmed. Where cells or extracts were used, other partners may take part. For some assays here: A negative result means that nothing was seen under these conditions.
What was measured:
FLAG-HOX11 T247E = FLAG-HOX11 T247E (UniProt P31314); assay: EMSA; conditions: 10 mM Tris-HCl pH 7.6, 50 mM NaCl, 1 mM EDTA, 5% glycerol, 6 ug nuclear extract in 10 ul, room temperature 30 min; 6% native PAGE, 0.5x TBE, EMSA stain; protein in an extract; label: none (gel stained)
FLAG-HOX11 T247A = FLAG-HOX11 T247A (UniProt P31314); assay: EMSA; conditions: 10 mM Tris-HCl pH 7.6, 50 mM NaCl, 1 mM EDTA, 5% glycerol, 6 ug nuclear extract in 10 ul, room temperature 30 min; 6% native PAGE, 0.5x TBE, EMSA stain; protein in an extract; label: none (gel stained)

Protein sequences, listed by entry. Tags and fused reporters are not part of them.
UniProt P31314, whole entry T247E: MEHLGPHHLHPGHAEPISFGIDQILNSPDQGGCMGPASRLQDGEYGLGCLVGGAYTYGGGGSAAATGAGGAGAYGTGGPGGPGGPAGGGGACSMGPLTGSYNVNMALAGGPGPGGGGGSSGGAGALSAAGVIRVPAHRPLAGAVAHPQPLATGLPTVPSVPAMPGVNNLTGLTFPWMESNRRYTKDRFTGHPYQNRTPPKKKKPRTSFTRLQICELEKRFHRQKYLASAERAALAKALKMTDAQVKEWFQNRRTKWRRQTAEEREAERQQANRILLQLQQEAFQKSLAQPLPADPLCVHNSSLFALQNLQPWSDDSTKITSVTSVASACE
UniProt P31314, whole entry T247A: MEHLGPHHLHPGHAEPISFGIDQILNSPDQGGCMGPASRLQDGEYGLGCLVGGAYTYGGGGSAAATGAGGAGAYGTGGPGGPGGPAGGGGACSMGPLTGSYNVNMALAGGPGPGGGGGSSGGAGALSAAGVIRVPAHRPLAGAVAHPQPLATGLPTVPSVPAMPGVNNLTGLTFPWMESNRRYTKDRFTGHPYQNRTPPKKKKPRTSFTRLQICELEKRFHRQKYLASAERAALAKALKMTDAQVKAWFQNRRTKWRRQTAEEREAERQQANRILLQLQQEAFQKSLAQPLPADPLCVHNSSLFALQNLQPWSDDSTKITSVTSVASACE

## TCCATCCCAGTAATAAGTGTTTT (double strand) [CCNB1 promoter TAAGTG probe]
FLAG-HOX11 T247E
  binding result: no binding
FLAG-HOX11 T247A
  binding result: binds
